{"source": "PubChem BioAssay AID1347080", "about": "(ICCB-Longwood Screening Facility, Harvard Medical School, 2019)", "assay": "viability loss with induced miR-34 in A549 – imaging, A549 dox-inducible miR-34, nuclei and caspase counts, primary screen (AID 1347080); also: test concentration not given here", "conditions": "A549 miR-34 inducible, Hoechst nuclei count, 48 h", "note": "“And” between values parts separate entries of the source, which are not always exact repeats. Identical values can stand only once. This is one part of the list.", "data": [{"smiles": "CN(CCCl)CCCl", "values": [{"measurement": "fold change", "setting": "measured here: relative caspase fold change +Dox/-Dox", "result": "1.54 and 1.22"}, {"measurement": "cell count", "setting": "measured here: total cells with miR-34 induction, stronger effect = lower value", "result": "1990 and 2240"}, {"measurement": "cell count", "setting": "measured here: total cells without miR-34 induction", "result": "2170 and 2380"}]}]}
